Test results: patent publication US20110318272A1, “PESTICIDAL MIXTURES GIVING S[…]” (priority 2010, published 2011)
Some results were stated once for a whole list of compounds, not compound by compound. Some compounds share one range, which may span the group rather than tell each member.

Key:
Assay type in all cases: in vivo
whitefly nymphs = test: Field study, whitefly nymphs on cotton
Trialeurodes sp. = test: Field study, adult whitefly on zucchini
Procedure: (§1) For the field experiments described in Examples 14-16, the numbers of target organisms on host plants were assessed before treatment and after treatment.
Field studies as described below were carried out to determine the efficacy of BUGOIL® alone, lambda cyhalothrin alone, imidacloprid alone, abamectin alone, and mixtures of BUGOIL® with lambda cyhalothrin, imidacloprid, or abamectin, for control of adult whiteflies of different whitefly species, on zucchini and cucumber. In the following studies, the dose (N) is the label dose for each product, expressed in concentration (grams active ingredient) per liter of spray mixture (a.i.)/1).

Spodoptera litura = test: Field study, cutworm on eggplant; settings: 7 DAA, alone at half the recommended rate (½ N)
Procedure: as §1
(§2) Field studies as described below were carried out to determine the efficacy of BUGOIL®, lambda cyhalothrin, imidacloprid, and abamectin, alone and in mixtures with BUGOIL®, for control of the whitefly Bemisia tabaci, the leafhopper Empoasca biggutula, the aphid Aphis gosspyii, the shoot/fruit borer Leucinodes orbonalis and the cutworm Spodoptera litura on the eggplant cultivar “Casino” (Solanum melongena cv Casino). In the following studies, the dose (N) is the label dose for each product, expressed in concentration (grams active ingredient) per liter of spray mixture (a.i.)/l).
Lambda cyhalothrin is formulated as Karate® (KARATE® with Zeon Technology, Syngenta Phillipines, Inc., Batch No. JAK8,18179, Production Date Nov. 11, 2008, Phillipines Department of Agriculture, Fertilizer and Pesticides Authority (FPA) Reg. No. 011-204-0396), where the dose prior to dilution=N=label dose=0.8 g (a.i.)/l (rated adapted to lepidopterian and leafhopper pests).
Imidacloprid is formulated as CLIMAX® (CLIMAX® 200 SL, Bayer CropScience, Inc., Batch No. 81001025, Production Date Feb. 22, 2005, FPA Reg. No. 284-240-0761 where the dose prior to dilution=N=label dose=0.15 g (a.i.)/l. […]

Empoasca biggutula = test: Field study, leafhopper on eggplant; settings: FIG. 16, 3DAA, BUGOIL ½ N (5 mL/L), imidacloprid alone, all mixtures
Procedure: as §1, §2
Imidacloprid is formulated as CLIMAX® (CLIMAX® 200 SL, Bayer CropScience, Inc., Batch No. 81001025, Production Date Feb. 22, 2005, FPA Reg. No. 284-240-0761 where the dose prior to dilution=N=label dose=0.15 g (a.i.)/l.
Abamectin is formulated as AGRI-MEK® (AGRI-MEK® 1.8 EC, Syngenta Phillipines, Inc., FPA Reg. No. 011-234-0791), where the dose prior to dilution=N=label dose=0.018 g (a.i.)/l.

Bemisia tabaci = test: Field study, adult whitefly on cucumber; settings: alone (BUGOIL 5 and 10 mL/L; abamectin N and N/2)

Compound: CC1(C)[C@H](C(=O)O[C@H](C#N)c2cccc(Oc3ccccc3)c2)[C@@H]1/C=C(\Cl)C(F)(F)F (racemic) [lambda-cyhalothrin, Lambda-cyhalothrin]
- control of whitefly nymphal stages (whitefly nymphs): 50-70%
- control of adult whiteflies (Trialeurodes sp.; FIG. 11, product alone at the rates tested (BUGOIL 5, 10 mL/L; lambda cyhalothrin N, N/2)): > 60%
- control of cutworm, S litura (Spodoptera litura): 40-50%

Compound: O=[N+]([O-])/N=C1\NCCN1Cc1ccc(Cl)nc1 [imidacloprid, (2E)-1-[(6-chloro-3-pyridinyl)methyl]-N-nitro-2-imidazolidinimine]
- control of whitefly nymphal stages (whitefly nymphs): 50-70%
- control of leafhoppers (Empoasca biggutula): 80-90%
- control of adult whiteflies (Trialeurodes sp.; FIG. 12, BUGOIL alone at 5 and 10 mL/L, imidacloprid alone at usual rate (N)): 70-80%
- control of cutworm, S litura (Spodoptera litura): 40-50%

Compound: Abamectin
- control of adult Bemisia tabaci whiteflies (Bemisia tabaci; 1 DAA): > 60%
- control of adult Bemisia tabaci whiteflies (Bemisia tabaci; 4DAA and 7 DAA): over 80%
- control of whitefly nymphal stages (whitefly nymphs): 50-70%
